From US9144596B2, “Compositions and methods of treating neoplasia” (University of Florida Research Foundation, Inc., priority 2007, dated 2015)
For at least one compound, name, drawing or mass did not settle the structure.

Test system: APC
Experiment: APC protein level after TMZ treatment (FIG. 18B)
Format: cell-based, human
Details: HCT-116(APC+/+) cells; dose-dependent

Cn1nnc2c(C(N)=O)ncn2c1=O [TMZ, Temozolomide, reference compound]
APC protein level: increase
